{"sequences": {"note": "Protein sequences, listed by entry. Tags and fused reporters are not part of them.", "UniProt Q99459": "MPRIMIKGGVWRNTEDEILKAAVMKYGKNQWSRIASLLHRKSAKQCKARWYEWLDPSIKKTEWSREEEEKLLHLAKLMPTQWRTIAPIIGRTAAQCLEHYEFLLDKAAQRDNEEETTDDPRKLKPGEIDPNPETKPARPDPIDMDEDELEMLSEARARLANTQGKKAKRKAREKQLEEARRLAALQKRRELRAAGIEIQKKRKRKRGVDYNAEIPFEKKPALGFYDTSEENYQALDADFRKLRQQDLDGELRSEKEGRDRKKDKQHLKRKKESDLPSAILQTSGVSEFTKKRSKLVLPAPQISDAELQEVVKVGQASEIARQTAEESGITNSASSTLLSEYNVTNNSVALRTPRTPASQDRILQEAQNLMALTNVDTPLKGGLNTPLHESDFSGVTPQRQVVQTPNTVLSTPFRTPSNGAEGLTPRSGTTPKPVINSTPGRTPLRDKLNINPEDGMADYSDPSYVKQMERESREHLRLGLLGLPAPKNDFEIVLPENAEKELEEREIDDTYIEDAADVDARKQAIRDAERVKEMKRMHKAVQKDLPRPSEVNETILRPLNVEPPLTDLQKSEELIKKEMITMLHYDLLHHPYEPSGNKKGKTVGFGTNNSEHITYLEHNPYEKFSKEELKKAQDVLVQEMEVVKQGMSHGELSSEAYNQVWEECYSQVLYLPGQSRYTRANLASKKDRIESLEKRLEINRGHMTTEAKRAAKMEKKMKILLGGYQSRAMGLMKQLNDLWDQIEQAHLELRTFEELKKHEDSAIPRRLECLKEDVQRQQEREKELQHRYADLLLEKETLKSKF", "UniProt P28482": "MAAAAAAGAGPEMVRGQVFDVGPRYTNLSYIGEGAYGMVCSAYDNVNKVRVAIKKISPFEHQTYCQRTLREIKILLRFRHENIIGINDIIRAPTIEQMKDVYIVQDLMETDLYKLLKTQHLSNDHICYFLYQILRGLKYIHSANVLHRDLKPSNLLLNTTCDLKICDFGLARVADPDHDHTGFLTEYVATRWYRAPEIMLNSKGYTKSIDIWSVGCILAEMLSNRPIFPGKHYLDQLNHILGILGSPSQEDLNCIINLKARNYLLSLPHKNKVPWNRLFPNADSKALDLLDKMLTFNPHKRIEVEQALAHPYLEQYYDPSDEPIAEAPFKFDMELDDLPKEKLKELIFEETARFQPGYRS"}, "source": "paper PMC11844288", "biological_target": "Cell division cycle 5-like protein (CDC5L) (human) (UniProt Q99459)", "assay": "affinity purification with mass spectrometry; CO-IP of CDC5L from GC cell proteins on protein A/G-agarose beads, immunoprecipitated proteins analysed by mass spectrometry", "note": "Results are given in words; binding and its absence hold for the method and conditions named. Binding seen in cells or lysates may run through a third protein. A yes stands for co-enrichment or nearness to the bait. Other partners may have been found."}
{"substance": "MAPK1 (from UniProt P28482 1-360)", "values": [{"measurement": "binding", "result": "binds"}]}
